Test results from patent publication US20140370024A1 (IMPERIAL INNOVATIONS, published 2014).
Results are given in words; binding and its absence hold for the method and conditions named. Some entries that bind do so weakly or less than the wild type. Tags and fused reporters may be left off the sequences shown.

How the values were obtained:
[1] = molecular target: T1, gC1qR, the receptor of the globular part of the complement protein C1q, from rat brain membrane fractions (rat) (UniProt O35796); assay: TLQP-21 monomeric avidin column eluates, Western blot for gC1qR
T1 sequence (looked up): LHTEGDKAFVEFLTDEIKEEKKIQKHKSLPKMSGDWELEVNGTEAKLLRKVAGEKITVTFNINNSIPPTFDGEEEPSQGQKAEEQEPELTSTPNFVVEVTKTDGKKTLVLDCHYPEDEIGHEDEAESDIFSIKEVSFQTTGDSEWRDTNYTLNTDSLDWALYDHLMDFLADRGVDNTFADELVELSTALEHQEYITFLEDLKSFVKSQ

[2] = molecular target: T1, gC1qR, the receptor of the globular part of the complement protein C1q, from rat brain membrane fractions (rat); assay: pull-down of P4 rat brain membrane fractions on a TLQP-21 avidin column, silver staining, LC-MS/MS Orbitrap
[3] = molecular target: T1, gC1qR, the receptor of the globular part of the complement protein C1q, from rat brain membrane fractions (rat); assay: pull-down of rat brain membrane fraction on a TLQP-21 monomeric avidin column, SDS-PAGE, silver staining, LC-MS/MS

Measured: binding

TLQPPASSRRRHFHHALPPARC (biotin covalently attached via the amide bond at the N-terminus) [biotin-tagged TLQP-21 attached to a monomeric avidin column]
binds: [1] | [2] | [3]
